Test results from PMC6972895.
Results are given in words; binding and its absence hold for the method and conditions named. Some entries that bind do so weakly or less than the wild type. Tags and fused reporters may be left off the sequences shown.

Target: T1, CCT2-FLAG (FLAG-tagged CCT2, FLAG tag on the C-terminal of CCT2) (human), P78371
T1 chain: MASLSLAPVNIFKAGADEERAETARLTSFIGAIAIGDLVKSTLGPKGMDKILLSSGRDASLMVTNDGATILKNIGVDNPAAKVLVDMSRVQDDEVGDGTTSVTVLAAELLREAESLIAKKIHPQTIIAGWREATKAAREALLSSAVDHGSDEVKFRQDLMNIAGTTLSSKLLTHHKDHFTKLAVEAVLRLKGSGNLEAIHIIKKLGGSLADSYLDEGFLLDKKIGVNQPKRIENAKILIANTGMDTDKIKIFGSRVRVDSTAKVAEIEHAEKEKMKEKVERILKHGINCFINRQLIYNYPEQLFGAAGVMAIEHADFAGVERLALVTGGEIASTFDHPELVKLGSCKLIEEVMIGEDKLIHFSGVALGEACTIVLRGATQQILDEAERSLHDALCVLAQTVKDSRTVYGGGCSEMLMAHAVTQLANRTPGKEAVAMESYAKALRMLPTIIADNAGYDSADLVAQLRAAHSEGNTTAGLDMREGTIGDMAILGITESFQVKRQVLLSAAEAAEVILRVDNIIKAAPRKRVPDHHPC
Test: native gel or EMSA; native PAGE of T47D CCT2-FLAG cell lysates; blotted for FLAG, CCT2 and CCT3; oligomeric complex against free monomer
Details: remark: other sources report otherwise

B1: Endogenous CCT2, P78371 1-535 (protein)
chain: MASLSLAPVNIFKAGADEERAETARLTSFIGAIAIGDLVKSTLGPKGMDKILLSSGRDASLMVTNDGATILKNIGVDNPAAKVLVDMSRVQDDEVGDGTTSVTVLAAELLREAESLIAKKIHPQTIIAGWREATKAAREALLSSAVDHGSDEVKFRQDLMNIAGTTLSSKLLTHHKDHFTKLAVEAVLRLKGSGNLEAIHIIKKLGGSLADSYLDEGFLLDKKIGVNQPKRIENAKILIANTGMDTDKIKIFGSRVRVDSTAKVAEIEHAEKEKMKEKVERILKHGINCFINRQLIYNYPEQLFGAAGVMAIEHADFAGVERLALVTGGEIASTFDHPELVKLGSCKLIEEVMIGEDKLIHFSGVALGEACTIVLRGATQQILDEAERSLHDALCVLAQTVKDSRTVYGGGCSEMLMAHAVTQLANRTPGKEAVAMESYAKALRMLPTIIADNAGYDSADLVAQLRAAHSEGNTTAGLDMREGTIGDMAILGITESFQVKRQVLLSAAEAAEVILRVDNIIKAAPRKRVPDHHPC
binding: binds
